# Patent publication US20140017240A1 (University of California, published 2014)
# Chains of the proteins cited; added tags and fusions are not shown. Lines headed by an entry give the natural chain unless they say otherwise; changes in a name come on top.
# UniProt P19022: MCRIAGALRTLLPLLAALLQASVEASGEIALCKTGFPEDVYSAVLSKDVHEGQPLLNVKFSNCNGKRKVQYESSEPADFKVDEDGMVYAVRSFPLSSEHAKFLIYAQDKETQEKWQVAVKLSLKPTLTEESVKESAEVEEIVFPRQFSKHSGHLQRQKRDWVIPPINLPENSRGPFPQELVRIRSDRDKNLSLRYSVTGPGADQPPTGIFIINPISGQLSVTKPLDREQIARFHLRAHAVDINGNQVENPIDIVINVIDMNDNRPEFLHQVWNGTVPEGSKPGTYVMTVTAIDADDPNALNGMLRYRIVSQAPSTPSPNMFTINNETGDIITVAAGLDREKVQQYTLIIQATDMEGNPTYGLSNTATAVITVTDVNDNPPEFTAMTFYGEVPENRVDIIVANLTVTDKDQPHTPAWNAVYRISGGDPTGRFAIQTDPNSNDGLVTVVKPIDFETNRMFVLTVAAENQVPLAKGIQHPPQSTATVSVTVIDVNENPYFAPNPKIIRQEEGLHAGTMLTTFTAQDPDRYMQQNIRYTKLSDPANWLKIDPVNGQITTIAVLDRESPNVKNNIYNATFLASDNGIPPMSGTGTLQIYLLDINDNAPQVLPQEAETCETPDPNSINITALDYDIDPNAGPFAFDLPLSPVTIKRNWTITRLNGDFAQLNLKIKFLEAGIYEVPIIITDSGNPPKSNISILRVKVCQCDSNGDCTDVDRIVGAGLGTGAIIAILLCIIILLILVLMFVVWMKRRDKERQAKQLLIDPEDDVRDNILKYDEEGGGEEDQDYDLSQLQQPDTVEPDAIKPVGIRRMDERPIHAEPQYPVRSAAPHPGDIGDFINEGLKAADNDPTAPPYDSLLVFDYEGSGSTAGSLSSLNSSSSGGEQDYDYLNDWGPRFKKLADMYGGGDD
# Results are given in words; binding and its absence hold for the method and conditions named. Binding calls can cover weak binding; strength is not graded here.
# Experiments:
# [1] = biological target: N-cadherin forth domain recombinant protein with 6 histidine tag (human) (UniProt P19022); assay: phage ELISA
# [2] = biological target: N-cadherin forth domain recombinant protein with 6 histidine tag (human) (UniProt P19022); assay: phage ELISA, summary
binder,measurement,setting,value
"A14 ScFv phage antibody clone (scFv, Clone A1 was renamed A14; Selected on ECD4-6HIS; also called A14 (A1)) scFv: MAQVQLVQSGGGLAQPGGSLRLSCAASGFTFSRHAMIWVRQAPGKGLEWVSSISGSSDSTSYADSVKGRFTISRDNSKNTLYLQMNTLRAEDTAVYYCAKATGYSYYYGMDVWGPGTTVTVSSGGGGSGGGGSGGGGSDIQMTQSPSSLSASLGDRVTITCRASQGISNYLAWYQQKPGKAPKLLIYGATTLQHGVPSRFSGSGSGTDFSLTISSLQPEDFAIYFCQQAHSFPPTFGGGTKLEIKR",binding,[1],binds
same,binding,[2],binds
